In PubChem BioAssay (NCI):
What follows is the remainder of the data, with few or none of the hits. Activity calls are given as the source filed them. Rule as the data show it: active = growth inhibition above about 70%; inactive = the rest.

Key:
[1] = NCI Yeast Anticancer Drug Screen. Data for the wt2 strain (AID 169);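 also: 0% = growth of vehicle-treated yeast cultures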; settings: S. cerevisiae wt2 strain growth inhibition, stronger effect = higher value
In short: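 Values express reduction in yeast growth under compound treatment, referenced to vehicle-treated cells.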

[2] = NCI Yeast Anticancer Drug Screen. Data for the mlh1 strain (AID 171);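 also: 0% = growth of vehicle-treated control cultures of the same strain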; settings: S. cerevisiae mlh1 strain growth inhibition, stronger effect = higher value
In short: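 Steps: expose the defined-mutant yeast strain to compound; expose a parallel culture to vehicle; measure growth; express compound effect as inhibition relative to the vehicle culture.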

[3] = NCI Yeast Anticancer Drug Screen. Data for the sgs1 strain (AID 173);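 also: 0% = growth of vehicle-only control cultures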; settings: S. cerevisiae sgs1 mutant, stronger effect = higher value
In short: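 Treat defined-mutant yeast with compound; measure growth; calculate inhibition relative to vehicle-treated cells.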

[4] = NCI Yeast Anticancer Drug Screen. Data for the rad18 strain (AID 177); settings: S. cerevisiae rad18 mutant growth inhibition, stronger effect = higher value
In short: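 A genetically defined yeast mutant impaired in DNA damage repair was treated with test compounds, then its growth was measured against cultures receiving vehicle alone.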

[5] = NCI Yeast Anticancer Drug Screen. Data for the rad52 strain (AID 147);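 also: 0% = growth of vehicle-treated control cultures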; settings: S. cerevisiae rad52 mutant growth inhibition, stronger effect = higher value
In short: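 Screen used a yeast mutant impaired in DNA repair. After compound exposure, growth was measured. Values reflect inhibition compared with vehicle-treated cells.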

[6] = NCI Yeast Anticancer Drug Screen. Data for the wt1 strain (AID 149);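 also: 0% = growth of vehicle-treated wt1 cultures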; settings: S. cerevisiae wt1 strain (SPY 50644) growth inhibition, stronger effect = higher value
In short: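 The wt1 strain was treated with compounds, and growth was compared with vehicle-treated cultures to give inhibition.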

[7] = NCI Yeast Anticancer Drug Screen. Data for the rad50EPP+ strain (AID 151);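 also: 0% = growth of vehicle-treated control cultures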; settings: S. cerevisiae rad50 mutant strain, stronger effect = higher value
In short: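 Exposing the rad50EPP+ strain to each compound, growth was compared with vehicle-only cultures to give inhibition.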

[8] = NCI Yeast Anticancer Drug Screen. Data for the mgt1 strain (AID 153); settings: S. cerevisiae mgt1 mutant growth inhibition, stronger effect = higher value
In short: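 Genetically defined yeast (mgt1) treated with compound; inhibition of growth expressed against vehicle-treated controls.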

[9] = NCI Yeast Anticancer Drug Screen. Data for the rad14 strain (AID 159);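 also: 0% = growth of vehicle-treated control cultures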; settings: S. cerevisiae rad14 strain growth inhibition, stronger effect = higher value
In short: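 Readout: yeast growth inhibition, referenced to vehicle-only cultures. Strain bears a defined alteration in DNA damage repair.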

[10] = NCI Yeast Anticancer Drug Screen. Data for the CLN2oe strain (AID 163);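 also: 0% = growth of vehicle-only control cultures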; settings: S. cerevisiae CLN2oe strain, stronger effect = higher value
In short: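 Values reflect how much compound exposure reduced yeast growth, referenced to vehicle-exposed cells. Assay organism is a strain with a defined genetic change affecting cell-cycle control.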

Measured: growth inhibition

CCN(CCO)C(C(=O)c1ccc(-c2ccccc2)cc1)c1ccc(-c2ccccc2)cc1 (stereo not given)
inactive: [1]; at 1.2 µM -2% | [1]; at 3.7 µM -2% | [1]; at 11.0 µM -2% | [1]; at 33.0 µM -2% | [1]; at 100.0 µM -2% | [2]; at 1.2 µM -3% | [2]; at 3.7 µM -3% | [2]; at 11.0 µM -1% | [2]; at 33.0 µM 0% | [2]; at 100.0 µM -3% | [3]; at 1.2 µM -1% | [3]; at 3.7 µM -1% | [3]; at 11.0 µM -1% | [3]; at 33.0 µM -1% | [3]; at 100.0 µM -1% | [4]; at 1.2 µM -3% | [4]; at 3.7 µM -3% | [4]; at 11.0 µM -2% | [4]; at 33.0 µM -4% | [4]; at 100.0 µM -4%

CN1C(=O)C(CC(N)=O)NC1=S (stereo not given)
inactive: [5]; at 1.2 µM 0% | [5]; at 3.7 µM -1% | [5]; at 11.0 µM 0% | [5]; at 33.0 µM 4% | [5]; at 100.0 µM 16% | [6]; at 1.2 µM -1% | [6]; at 3.7 µM -2% | [6]; at 11.0 µM 1% | [6]; at 33.0 µM 2% | [6]; at 100.0 µM 7% | [7]; at 1.2 µM 1% | [7]; at 3.7 µM 0% | [7]; at 11.0 µM -1% | [7]; at 33.0 µM -6% | [7]; at 100.0 µM -6% | [8]; at 1.2 µM -2% | [8]; at 3.7 µM -4% | [8]; at 11.0 µM -2% | [8]; at 33.0 µM 18% | [8]; at 100.0 µM 11% | [9]; at 1.2 µM -1% | [9]; at 3.7 µM 0% | [9]; at 11.0 µM 5% | [9]; at 33.0 µM 11% | [9]; at 100.0 µM 28% | [10]; at 1.2 µM -3% | [10]; at 3.7 µM 0% | [10]; at 11.0 µM 2% | [10]; at 33.0 µM -1% | [10]; at 100.0 µM -1% | [1]; at 1.2 µM 0% | [1]; at 3.7 µM -1% | [1]; at 11.0 µM 4% | [1]; at 33.0 µM 5% | [1]; at 100.0 µM 11% | [2]; at 1.2 µM -1% | [2]; at 3.7 µM -1% | [2]; at 11.0 µM 1% | [2]; at 33.0 µM 5% | [2]; at 100.0 µM 25% | [3]; at 1.2 µM -1% | [3]; at 3.7 µM 4% | [3]; at 11.0 µM 8% | [3]; at 33.0 µM 16% | [3]; at 100.0 µM 44% | [4]; at 1.2 µM 0% | [4]; at 3.7 µM 1% | [4]; at 11.0 µM -1% | [4]; at 33.0 µM 11% | [4]; at 100.0 µM 30%

O=C1C=CC(=Nc2ccc3c(c2)C(O)c2ccccc2-3)O1 (stereo not given)
inactive: [5]; at 1.2 µM -4% | [5]; at 3.7 µM -5% | [5]; at 11.0 µM -2% | [5]; at 33.0 µM 3% | [5]; at 100.0 µM 8% | [6]; at 1.2 µM -4% | [6]; at 3.7 µM -3% | [6]; at 11.0 µM -3% | [6]; at 33.0 µM 0% | [6]; at 100.0 µM 0% | [7]; at 1.2 µM 1% | [7]; at 3.7 µM 0% | [7]; at 11.0 µM 1% | [7]; at 33.0 µM 10% | [7]; at 100.0 µM 34% | [8]; at 1.2 µM -3% | [8]; at 3.7 µM -5% | [8]; at 11.0 µM -2% | [8]; at 33.0 µM 1% | [8]; at 100.0 µM 10% | [9]; at 1.2 µM -3% | [9]; at 3.7 µM -5% | [9]; at 11.0 µM -2% | [9]; at 33.0 µM 4% | [9]; at 100.0 µM 10% | [10]; at 1.2 µM -8% | [10]; at 3.7 µM -4% | [10]; at 11.0 µM -10% | [10]; at 33.0 µM -10% | [10]; at 100.0 µM -7% | [1]; at 1.2 µM -5% | [1]; at 3.7 µM -5% | [1]; at 11.0 µM -3% | [1]; at 33.0 µM -2% | [1]; at 100.0 µM 1% | [2]; at 1.2 µM -1% | [2]; at 3.7 µM -1% | [2]; at 11.0 µM 4% | [2]; at 33.0 µM 9% | [2]; at 100.0 µM 14% | [3]; at 1.2 µM -1% | [3]; at 3.7 µM 1% | [3]; at 11.0 µM 3% | [3]; at 33.0 µM 8% | [3]; at 100.0 µM 13% | [4]; at 1.2 µM -4% | [4]; at 3.7 µM -2% | [4]; at 11.0 µM -1% | [4]; at 33.0 µM 5% | [4]; at 100.0 µM 13%

Already shown: 2 of the compounds above.
CCN(CCO)C(C(=O)c1ccc(-c2ccccc2)cc1)c1ccc(-c2ccccc2)cc1 (stereo not given)
inactive: [1]; at 1.2 µM -2% | [1]; at 3.7 µM -2% | [1]; at 11.0 µM -2% | [1]; at 33.0 µM -2% | [1]; at 100.0 µM -2% | [2]; at 1.2 µM -3% | [2]; at 3.7 µM -3% | [2]; at 11.0 µM -1% | [2]; at 33.0 µM 0% | [2]; at 100.0 µM -3% | [3]; at 1.2 µM -1% | [3]; at 3.7 µM -1% | [3]; at 11.0 µM -1% | [3]; at 33.0 µM -1% | [3]; at 100.0 µM -1% | [4]; at 1.2 µM -3% | [4]; at 3.7 µM -3% | [4]; at 11.0 µM -2% | [4]; at 33.0 µM -4% | [4]; at 100.0 µM -4%

CN1C(=O)C(CC(N)=O)NC1=S (stereo not given)
inactive: [5]; at 1.2 µM 0% | [5]; at 3.7 µM -1% | [5]; at 11.0 µM 0% | [5]; at 33.0 µM 4% | [5]; at 100.0 µM 16% | [6]; at 1.2 µM -1% | [6]; at 3.7 µM -2% | [6]; at 11.0 µM 1% | [6]; at 33.0 µM 2% | [6]; at 100.0 µM 7% | [7]; at 1.2 µM 1% | [7]; at 3.7 µM 0% | [7]; at 11.0 µM -1% | [7]; at 33.0 µM -6% | [7]; at 100.0 µM -6% | [8]; at 1.2 µM -2% | [8]; at 3.7 µM -4% | [8]; at 11.0 µM -2% | [8]; at 33.0 µM 18% | [8]; at 100.0 µM 11% | [9]; at 1.2 µM -1% | [9]; at 3.7 µM 0% | [9]; at 11.0 µM 5% | [9]; at 33.0 µM 11% | [9]; at 100.0 µM 28% | [10]; at 1.2 µM -3% | [10]; at 3.7 µM 0% | [10]; at 11.0 µM 2% | [10]; at 33.0 µM -1% | [10]; at 100.0 µM -1% | [1]; at 1.2 µM 0% | [1]; at 3.7 µM -1% | [1]; at 11.0 µM 4% | [1]; at 33.0 µM 5% | [1]; at 100.0 µM 11% | [2]; at 1.2 µM -1% | [2]; at 3.7 µM -1% | [2]; at 11.0 µM 1% | [2]; at 33.0 µM 5% | [2]; at 100.0 µM 25% | [3]; at 1.2 µM -1% | [3]; at 3.7 µM 4% | [3]; at 11.0 µM 8% | [3]; at 33.0 µM 16% | [3]; at 100.0 µM 44% | [4]; at 1.2 µM 0% | [4]; at 3.7 µM 1% | [4]; at 11.0 µM -1% | [4]; at 33.0 µM 11% | [4]; at 100.0 µM 30%

The listing continues.

COc1ccc(NC(=O)c2ccccc2Cl)cc1
inactive: [5]; at 1.2 µM -11% | [5]; at 3.7 µM 1% | [5]; at 11.0 µM 3% | [5]; at 33.0 µM 4% | [5]; at 100.0 µM 2% | [6]; at 1.2 µM -3% | [6]; at 3.7 µM -2% | [6]; at 11.0 µM -2% | [6]; at 33.0 µM -3% | [6]; at 100.0 µM -3% | [7]; at 1.2 µM -1% | [7]; at 3.7 µM 5% | [7]; at 11.0 µM 9% | [7]; at 33.0 µM 15% | [7]; at 100.0 µM 23% | [8]; at 1.2 µM -4% | [8]; at 3.7 µM -3% | [8]; at 11.0 µM -2% | [8]; at 33.0 µM -5% | [8]; at 100.0 µM 32% | [9]; at 1.2 µM -3% | [9]; at 3.7 µM -4% | [9]; at 11.0 µM -1% | [9]; at 33.0 µM -1% | [9]; at 100.0 µM -1% | [10]; at 1.2 µM -7% | [10]; at 3.7 µM 0% | [10]; at 11.0 µM -5% | [10]; at 33.0 µM -5% | [10]; at 100.0 µM -4% | [1]; at 1.2 µM -1% | [1]; at 3.7 µM -3% | [1]; at 11.0 µM -2% | [1]; at 33.0 µM -5% | [1]; at 100.0 µM -6% | [2]; at 1.2 µM 0% | [2]; at 3.7 µM 0% | [2]; at 11.0 µM 1% | [2]; at 33.0 µM 0% | [2]; at 100.0 µM 1% | [3]; at 1.2 µM -2% | [3]; at 3.7 µM -1% | [3]; at 11.0 µM -2% | [3]; at 33.0 µM 1% | [3]; at 100.0 µM 0% | [4]; at 1.2 µM -2% | [4]; at 3.7 µM -2% | [4]; at 11.0 µM -4% | [4]; at 33.0 µM -1% | [4]; at 100.0 µM 2%
